In assay [1] the target is T1, full-length GASZ (GFP-GASZ and FLAG-GASZ) (mouse) (UniProt Q8VD46).
T1 sequence: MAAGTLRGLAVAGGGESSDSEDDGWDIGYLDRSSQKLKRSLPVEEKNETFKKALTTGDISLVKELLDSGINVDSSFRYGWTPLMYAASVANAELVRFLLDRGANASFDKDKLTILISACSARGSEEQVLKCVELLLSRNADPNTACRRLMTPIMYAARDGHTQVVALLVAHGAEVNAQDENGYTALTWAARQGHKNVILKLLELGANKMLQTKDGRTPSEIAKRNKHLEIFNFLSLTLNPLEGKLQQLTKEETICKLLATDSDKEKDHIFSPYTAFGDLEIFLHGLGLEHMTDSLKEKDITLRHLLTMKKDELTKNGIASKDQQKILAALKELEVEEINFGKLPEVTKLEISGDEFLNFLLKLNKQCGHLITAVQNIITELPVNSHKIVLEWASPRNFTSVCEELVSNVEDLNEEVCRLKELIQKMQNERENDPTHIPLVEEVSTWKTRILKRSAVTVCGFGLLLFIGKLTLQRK
As to the kind of experiment: co-IP; GFP- and FLAG-tagged full-length GASZ co-expressed in 293T cells without or with FLAG-P345/401; lysate precipitated with a GFP antibody, Western blot with FLAG and GFP antibodies. For orientation: A western blot detects proteins with antibodies after separation by electrophoresis.

Assay [2] concerns the target T2, FLAG-GASZ-Δ345/401 (mouse) (UniProt Q8VD46).
T2 sequence: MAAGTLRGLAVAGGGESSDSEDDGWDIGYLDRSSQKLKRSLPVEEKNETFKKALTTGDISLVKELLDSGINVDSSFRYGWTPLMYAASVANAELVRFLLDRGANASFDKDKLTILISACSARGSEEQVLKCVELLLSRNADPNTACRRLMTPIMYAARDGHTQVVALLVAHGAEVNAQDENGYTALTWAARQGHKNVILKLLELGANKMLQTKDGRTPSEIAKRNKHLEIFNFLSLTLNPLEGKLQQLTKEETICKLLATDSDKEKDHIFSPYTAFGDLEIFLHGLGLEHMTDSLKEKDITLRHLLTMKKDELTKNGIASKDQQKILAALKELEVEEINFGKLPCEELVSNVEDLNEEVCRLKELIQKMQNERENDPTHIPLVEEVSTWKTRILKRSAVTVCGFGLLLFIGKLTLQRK
As to the kind of experiment: co-IP; GFP-GASZ co-expressed with FLAG-tagged GASZ or mutants in 293T cells; lysate (50 mM Tris pH 7.6, 300 mM NaCl, 1% Triton X-100) precipitated with FLAG affinity beads, Western blot.

Results are given in words; binding and its absence hold for the method and conditions named. Binding seen in cells or lysates may run through a third protein. Some results given as binding are weak or reduced against the parent protein; the word gives no strength. Tags and fused reporters may be left off the sequences shown.

Here are results for 2 molecules from publication PMC10781510.

B1: full-length GASZ (GFP-GASZ and FLAG-GASZ) (protein, UniProt Q8VD46 1-475)
chain: MAAGTLRGLAVAGGGESSDSEDDGWDIGYLDRSSQKLKRSLPVEEKNETFKKALTTGDISLVKELLDSGINVDSSFRYGWTPLMYAASVANAELVRFLLDRGANASFDKDKLTILISACSARGSEEQVLKCVELLLSRNADPNTACRRLMTPIMYAARDGHTQVVALLVAHGAEVNAQDENGYTALTWAARQGHKNVILKLLELGANKMLQTKDGRTPSEIAKRNKHLEIFNFLSLTLNPLEGKLQQLTKEETICKLLATDSDKEKDHIFSPYTAFGDLEIFLHGLGLEHMTDSLKEKDITLRHLLTMKKDELTKNGIASKDQQKILAALKELEVEEINFGKLPEVTKLEISGDEFLNFLLKLNKQCGHLITAVQNIITELPVNSHKIVLEWASPRNFTSVCEELVSNVEDLNEEVCRLKELIQKMQNERENDPTHIPLVEEVSTWKTRILKRSAVTVCGFGLLLFIGKLTLQRK
Regarding B1, the binding result is reported as “binds” in assay [1] and “no binding” in assay [2].

B2: FLAG-P345/401 (peptide, UniProt Q8VD46 345-401)
chain: EVTKLEISGDEFLNFLLKLNKQCGHLITAVQNIITELPVNSHKIVLEWASPRNFTSV
B2: the binding entry in assay [1] is recorded as “binds”.
